Measurements reported in PubChem BioAssay AID1259405 (NCATS, 2018).
Shown is one part, drawn at random, of about 50,000 deposited reagents. Over the whole deposit, about 4,000 (8%) are marked active. 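Mouse siRNA library applied to hamster cells; one well for each siRNA.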 Unmarked entries are inactive. The numbers tell different reagents against one gene apart.

Test: 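Mouse-designed siRNAs used to find CHO productivity engineering targets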 (primary screen)
System: Chinese hamster CHO-K1 ovary cells with stable secreted eGFP expression
Reagent: single siRNA against mouse genes, 0.8 pmol siRNA per well (2 µl of 400 nM stock)
Duration: 3 days
Detection: 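Percent of the per-plate non-targeting control median for intracellular GFP per well by laser scanning cytometry and for cell viability by ATP luminescence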
Direction: GFP, % of control: higher = more GFP per well, higher productivity; viability (ATP), % of control: higher = more viable cells (more ATP)
Call rule: 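a knock-down is called active if GFP reaches 120% or more of non-targeting control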

| target | reagent | GFP, % of control | viability (ATP), % of control |
| --- | --- | --- | --- |
| B430209F14Rik (RIKEN cDNA B430209F14 gene) | 1 | 70.7 | 31 |
| B430209F14Rik (RIKEN cDNA B430209F14 gene) | 2 | 75.3 | 91.5 |
| B430209F14Rik (RIKEN cDNA B430209F14 gene) | 3 | 60.1 | 34.2 |
| Mtm1 (X-linked myotubular myopathy gene 1) | 1 | 92.5 | 87.1 |
| Mtm1 (X-linked myotubular myopathy gene 1) | 2 | 93 | 59.6 |
| Mtm1 (X-linked myotubular myopathy gene 1) | 3 | 95.5 | 92 |
| Idnk (IDNK gluconokinase) | 1 | 67.6 | 56 |
| Idnk (IDNK gluconokinase) | 2 | 78.1 | 75.3 |
| Idnk (IDNK gluconokinase) | 3 | 101 | 163 |
| Mxi1 (MAX interactor 1, dimerization protein) | 1 | 88.5 | 78.2 |
| Mxi1 (MAX interactor 1, dimerization protein) | 2 | 60.4 | 76.9 |
| Mxi1 (MAX interactor 1, dimerization protein) | 3 | 57.1 | 86.4 |
| Irs1 (insulin receptor substrate 1) | 1 | 67.5 | 81.6 |
| Irs1 (insulin receptor substrate 1) | 2 | 80.6 | 53.5 |
| Irs1 (insulin receptor substrate 1) | 3 | 86.4 | 91.9 |
| Wdr45 (WD repeat domain 45) | 1 | 48.5 | 42.7 |
| Wdr45 (WD repeat domain 45) | 2 | 97.4 | 89.6 |
| Wdr45 (WD repeat domain 45) | 3 | 75.9 | 83.7 |
| Ccn2 (cellular communication network factor 2) | 1 | 73.5 | 83.4 |
| Ccn2 (cellular communication network factor 2) | 2 | 66.7 | 73.7 |
| Gbx2 (gastrulation brain homeobox 2) | 1 | 65.4 | 81.5 |
| Gbx2 (gastrulation brain homeobox 2) | 2 | 33.4 | 50.1 |
| Gbx2 (gastrulation brain homeobox 2) | 3 | 64.2 | 48.8 |
| Snph (syntaphilin) | 1 | 63.3 | 75.6 |
| Snph (syntaphilin) | 2 | 49.4 | 51.2 |
| Snph (syntaphilin) | 3 | 44.5 | 45.2 |
| Mtfmt (mitochondrial methionyl-tRNA formyltransferase) | 1 | 43.9 | 73.9 |
| Mtfmt (mitochondrial methionyl-tRNA formyltransferase) | 2 | 60.1 | 54.8 |
| Mtfmt (mitochondrial methionyl-tRNA formyltransferase) | 3 | 91.9 | 90 |
| Erp29 (endoplasmic reticulum protein 29) | 1 | 95 | 69.7 |
| Erp29 (endoplasmic reticulum protein 29) | 2 | 95.5 | 88.7 |
| Erp29 (endoplasmic reticulum protein 29) | 3 | 48.4 | 60.6 |
| Bfsp1 (beaded filament structural protein 1, in lens-CP94) | 1 | 88.9 | 68.7 |
| Bfsp1 (beaded filament structural protein 1, in lens-CP94) | 2 | 98 | 97 |
| Spag1 (sperm associated antigen 1) | 1 | 127 (active) | 120 |
| Spag1 (sperm associated antigen 1) | 2 | 103 | 83.7 |
| Muc19 (mucin 19) | 1 | 83.5 | 89.4 |
| Muc19 (mucin 19) | 2 | 92.8 | 85.4 |
| Muc19 (mucin 19) | 3 | 86.6 | 54.9 |
| Wdr17 (WD repeat domain 17) | 1 | 81.3 | 60.8 |
| Wdr17 (WD repeat domain 17) | 2 | 80.7 | 76.9 |
| Wdr17 (WD repeat domain 17) | 3 | 53.2 | 71 |
| Vps52 (VPS52 GARP complex subunit) | 1 | 105 | 70.4 |
| Vps52 (VPS52 GARP complex subunit) | 2 | 205 (active) | 134 |
| Vps52 (VPS52 GARP complex subunit) | 3 | 101 | 86 |
| Adra2c (adrenergic receptor, alpha 2c) | 1 | 84.1 | 64.9 |
| Adra2c (adrenergic receptor, alpha 2c) | 2 | 85 | 78.2 |
| Adra2c (adrenergic receptor, alpha 2c) | 3 | 62.8 | 51 |
| Atp10a (ATPase, class V, type 10A) | 1 | 114 | 119 |
| Atp10a (ATPase, class V, type 10A) | 2 | 79.5 | 121 |
| Atp10a (ATPase, class V, type 10A) | 3 | 120 (active) | 122 |
| Cadm2 (cell adhesion molecule 2) | 1 | 82.6 | 92.2 |
| Cadm2 (cell adhesion molecule 2) | 2 | 58.4 | 53.9 |
| Cadm2 (cell adhesion molecule 2) | 3 | 95.6 | 44.3 |
| Myo1h (myosin 1H) | 1 | 89.9 | 92.5 |
| Myo1h (myosin 1H) | 2 | 81.3 | 78.3 |
| Myo1h (myosin 1H) | 3 | 39.2 | 53.4 |
| Adgre5 (adhesion G protein-coupled receptor E5) | 1 | 70.3 | 57.5 |
| Adgre5 (adhesion G protein-coupled receptor E5) | 2 | 43.9 | 65.9 |
| Adgre5 (adhesion G protein-coupled receptor E5) | 3 | 74 | 69.8 |
| Gng12 (guanine nucleotide binding protein (G protein), gamma 12) | 1 | 70 | 79.3 |
| Gng12 (guanine nucleotide binding protein (G protein), gamma 12) | 2 | 87.4 | 68.2 |
| Gng12 (guanine nucleotide binding protein (G protein), gamma 12) | 3 | 58.3 | 50.3 |
| Or9a4 (olfactory receptor family 9 subfamily A member 4) | 1 | 76.6 | 55.3 |
| Or9a4 (olfactory receptor family 9 subfamily A member 4) | 2 | 60.2 | 76.9 |
| Or9a4 (olfactory receptor family 9 subfamily A member 4) | 3 | 34.2 | 45.5 |
| Dand5 (DAN domain family member 5, BMP antagonist) | 1 | 81.3 | 78 |
| Dand5 (DAN domain family member 5, BMP antagonist) | 2 | 200 (active) | 108 |
| Dand5 (DAN domain family member 5, BMP antagonist) | 3 | 59.3 | 20.4 |
| Tcf12 (transcription factor 12) | 1 | 74.2 | 91.8 |
| Tcf12 (transcription factor 12) | 2 | 89.7 | 71.9 |
| Tcf12 (transcription factor 12) | 3 | 85.7 | 98.6 |
| Nap1l2 (nucleosome assembly protein 1-like 2) | 1 | 89.8 | 62.1 |
| Nap1l2 (nucleosome assembly protein 1-like 2) | 2 | 87.3 | 84.3 |
| Nap1l2 (nucleosome assembly protein 1-like 2) | 3 | 78.8 | 73.5 |
| Klrd1 (killer cell lectin-like receptor, subfamily D, member 1) | 1 | 129 (active) | 116 |
| Klrd1 (killer cell lectin-like receptor, subfamily D, member 1) | 2 | 89.9 | 70 |
| Sync (syncoilin) | 1 | 84.1 | 56.3 |
| Sync (syncoilin) | 2 | 29.7 | 43.9 |
| Sync (syncoilin) | 3 | 59.3 | 67.7 |
| Rpl37 (ribosomal protein L37) | 1 | 69.4 | 55.2 |
| Rpl37 (ribosomal protein L37) | 2 | 87.4 | 40 |
| Rpl37 (ribosomal protein L37) | 3 | 87.8 | 63.2 |
| Otog (otogelin) | 1 | 121 (active) | 66.3 |
| Otog (otogelin) | 2 | 65.9 | 63.8 |

6 entries from above, ordered by “GFP, % of control”, descending:
| target | reagent | GFP, % of control | viability (ATP), % of control |
| --- | --- | --- | --- |
| Idnk (IDNK gluconokinase) | 3 | 101 | 163 |
| Mtm1 (X-linked myotubular myopathy gene 1) | 3 | 95.5 | 92 |
| Mtm1 (X-linked myotubular myopathy gene 1) | 2 | 93 | 59.6 |
| Mtm1 (X-linked myotubular myopathy gene 1) | 1 | 92.5 | 87.1 |
| Idnk (IDNK gluconokinase) | 2 | 78.1 | 75.3 |
| Idnk (IDNK gluconokinase) | 1 | 67.6 | 56 |
